Source: article PMC3832391
No constants are given. Whether binding was seen depends on the method and setting. Binding seen in cells or lysates may run through a third protein. Some binding calls cover weakened binding; strength is not graded here.

Target: T1, human Rh-associated glycoprotein (hRhAG) (human) (UniProt Q02094)
T1 sequence: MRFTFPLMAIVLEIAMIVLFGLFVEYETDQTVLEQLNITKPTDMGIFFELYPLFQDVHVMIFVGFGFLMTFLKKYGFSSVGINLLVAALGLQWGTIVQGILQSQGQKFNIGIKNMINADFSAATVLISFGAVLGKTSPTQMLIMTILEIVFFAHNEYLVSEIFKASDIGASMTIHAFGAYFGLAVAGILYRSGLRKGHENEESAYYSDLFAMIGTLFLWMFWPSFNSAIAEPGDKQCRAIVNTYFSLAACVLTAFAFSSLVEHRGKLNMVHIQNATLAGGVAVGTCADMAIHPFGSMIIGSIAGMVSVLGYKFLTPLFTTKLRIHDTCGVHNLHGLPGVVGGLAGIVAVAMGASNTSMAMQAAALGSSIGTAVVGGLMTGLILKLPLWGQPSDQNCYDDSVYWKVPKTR
Test: co-IP; anti-hRhAG LA18.18 on Protein G Sepharose beads; erythrocyte ghosts of TG_hRHAG_68.08 and WT mice solubilised in 10 mM Tris/HCl pH 7.4, 150 mM NaCl, 0.5 mM CaCl2, 0.5 mM MgCl2, 1% Triton X100; pre-cleared, incubated overnight at 4°C, washed 3 times; immunoblot with MPC8 (anti-Rh), anti-mRhag or LA18.18

Binder	binding
mouse Rh protein (mRh) (protein, UniProt Q8CF94 1-418) MGSKYPRSLRCCLPLWALELQTAFSLLFCFFIPHDTAQVDHRFMASYQVLRNLTLMAALGFGFLSSSFRRHSWSSVAFNLFMLALGVQGTILLDHFLGQVLQWNKINNLSSIQIATMSTLPVLISAGAVLGKVNLVQLTVMVLMEAMAFGAIRFADEKVFKMTEHIIMMHGHVFGAYFGLTVAWWLSRSLPRRVGENAQTEKVQMATSSSLFAMLGTLFLWIFWPAINSALLEGTKKRNAVFNTYYALAVSAVTATSMSALSHPQGKINMVHIHNAVLAGGVAVGAPGCLISSPWISMVLGLIAGLISIWGAKCPRACLNHMLQNSSGIHYTFGLPGLLGALTYYCLQIVTEPKSSDLWIITQTVTHIGALSFAVAMGMVTGLLTGCLLSVRVWRAPHAAKYFDDQTFWEFPHLAVGF	binds
mouse Rhag glycoprotein (mRhag) (protein, UniProt Q9QUT0 1-438) MRFKFPLMAISLEVAMIVLFGLFVEYETPQNASQKNASHQNASQQGNTSSSAKKDQFFQLYPLFQDVHVMIFVGFGFLMTFLKKYGFSGVGFNLFLAALGLQWGTIMQGLLHSHGKEFHFGIYNMINADFSTATVLISFGAVLGKTSPIQMLIMTILEIAVFAGNEYLVTELFEASDTGASMTIHAFGAYFGLAVAGVLYRPGLRCEHPNDESVYHSDLFAMIGTLFLWIFWPSFNSAIADPGDHQYRAIVNTYMSLAACVITAYALSSLVERRGRLDMVHIQNATLAGGVAVGTCADMEIPLYAAMTIGSIAGIISVLGYKFFSPLLANKLMIHDTCGVHNLHGLPGVFGGLASIVAISWGMSTASMAMQAAALGSSIGSAIVGGLLTGLILKLPIWNQPPDEYCYDDSVSWKVPKFRELDNRFFQHANHNHVEHEV	no binding
